Measured values from PubChem BioAssay AID588590 (National Center for Advancing Translational Sciences (NCATS), 2011).
Among all 390,000 compounds or so, about 4,000 (1%) were called active. The shares of active, inactive and inconclusive entries below differ from those in the screen. The call rests on the fitted dose curve; in most records, active means well fitted inhibition curve with a large enough effect; inconclusive means small, poorly fitted or top-dose-only effect, or another doubt; inactive means no such curve, though single readings can be large or run the other way. A potency beside an inconclusive call is a rough fit, not a confirmed value.

By UniProt entry, the sequences of proteins in these tests, tags left out. Where a name states a change or a piece, a line headed by the entry shows the natural chain unless it says otherwise.
UniProt Q9UNA4: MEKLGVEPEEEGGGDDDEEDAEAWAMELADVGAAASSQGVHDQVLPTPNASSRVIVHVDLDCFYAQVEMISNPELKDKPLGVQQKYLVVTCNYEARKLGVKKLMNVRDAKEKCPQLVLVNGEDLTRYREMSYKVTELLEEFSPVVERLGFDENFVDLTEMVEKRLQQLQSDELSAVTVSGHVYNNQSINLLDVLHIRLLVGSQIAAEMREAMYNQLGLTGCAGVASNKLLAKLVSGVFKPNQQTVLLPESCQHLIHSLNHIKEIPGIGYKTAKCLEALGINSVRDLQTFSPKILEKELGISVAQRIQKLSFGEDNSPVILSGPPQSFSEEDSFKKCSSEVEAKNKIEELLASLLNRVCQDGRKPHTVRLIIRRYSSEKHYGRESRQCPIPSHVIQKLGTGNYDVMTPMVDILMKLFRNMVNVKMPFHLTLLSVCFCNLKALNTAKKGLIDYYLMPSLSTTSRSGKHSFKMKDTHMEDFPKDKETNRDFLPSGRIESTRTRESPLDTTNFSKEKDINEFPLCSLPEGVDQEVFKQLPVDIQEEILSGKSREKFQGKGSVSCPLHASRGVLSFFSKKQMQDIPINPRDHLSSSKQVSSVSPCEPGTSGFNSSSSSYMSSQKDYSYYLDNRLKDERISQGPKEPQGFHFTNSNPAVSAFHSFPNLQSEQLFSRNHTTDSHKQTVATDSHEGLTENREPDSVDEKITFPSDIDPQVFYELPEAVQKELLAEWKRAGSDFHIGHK

Biological target: DNA polymerase iota (Homo sapiens) (UniProt Q9UNA4)
Assay: qHTS for Inhibitors of Polymerase Iota
Conditions: Pol iota fluorescent replication assay, 10 min; series mostly up to 115 µM
How it was run: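 Pol iota at 10 nM preincubated 15 min with compounds at room temperature; reaction started with fluorescent substrate, 50 nM final. Fluorescence read kinetically at 0 and 10 min; buffer-only wells as negative control.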
Potency means the concentration at half of the fitted maximal effect.

Structure (SMILES)	Potency
O=C(/C=C\c1ccccc1)Oc1cccc2cccnc12	inconclusive: 5.62 µM [inhibitor, full curve, poor fit]
Cc1cc(C)cc(OC(C)C(=O)Nc2ccc3c(c2)n(C)c(=O)n3C)c1 (stereo unspecified)	inconclusive: 25.1 µM [inhibitor, partial curve]
CCOc1ccc(CC(=O)C2C(=O)CC(C)(C)CC2=O)cc1OCC	inconclusive: 17.8 µM [inhibitor, partial curve, poor fit]
O=c1[nH]c(CSc2ccccc2)nc2c1oc1ccccc12	inconclusive: 63.1 µM [inhibitor, partial curve]
COc1ccc(C(=O)N2CCOC23CCN(c2ncccn2)CC3)cc1	inconclusive: 100 µM [inhibitor, single point]
COc1ccc2oc(C(=O)Nc3ccccc3N3CCOCC3)c(C)c2c1	inconclusive: 14.1 µM [inhibitor, full curve, poor fit]
COCCN1C(=O)c2oc3ccccc3c(=O)c2C1c1ccc(OC)c(OC)c1 (stereo unspecified)	inconclusive: 79.4 µM [inhibitor, partial curve, poor fit]
N#Cc1cccc(NC(=O)CSc2ccc3c4c(cccc24)C(=O)c2ccccc2-3)c1	inconclusive: 12.6 µM [inhibitor, partial curve, poor fit]
Cc1ccc(S(=O)(=O)NCC(c2ccc(N(C)C)cc2)N2CCOCC2)cc1 (stereo unspecified)	inconclusive: 89.1 µM [inhibitor, single point]
Cc1csc2nc(-c3cccc(NC(=O)c4ccccc4Cl)c3)cn12	inconclusive: 2.82 µM [inhibitor, full curve, poor fit]
CCC(=O)N1CCN(c2nc(-c3ccc(Cl)cc3)cs2)CC1	inconclusive: 10 µM [inhibitor, partial curve, poor fit]
CCOCCOC(=O)C1=C(C)Nc2ccc(C)cc2S1	inconclusive: 15.8 µM [inhibitor, partial curve, poor fit]
Cc1cccc(CN2CCN(Cc3ccc(-n4cccn4)cc3)CC2CCO)n1 (stereo unspecified)	inconclusive: 11.2 µM [inhibitor, partial curve, poor fit]
O=C1CCN(Cc2ccc(O)cc2)CCN1[C@H](CO)c1ccccc1	inconclusive: 89.1 µM [inhibitor, partial curve, poor fit]
CN(C)CCCOC(=O)N1c2ccccc2C=Cc2ccccc21	inconclusive: 31.6 µM [inhibitor, single point]
CCOc1cc(-c2nc3c(c(CC)nn3-c3ccccc3)c3cc(OC)c(OC)cc23)ccc1O	inactive
COc1ccc2c(c1)c(CC(=O)O)c(C)n2C(=O)c1ccc(Cl)cc1	inconclusive: 63.1 µM [inhibitor, partial curve, poor fit]
Nc1[nH]n(-c2c(Cl)cc(Cl)cc2Cl)c(=O)c1N=Nc1ccc(S(=O)(=O)Nc2ncccn2)cc1	inconclusive: 35.5 µM [inhibitor, partial curve, poor fit]
C=CCOC(=O)C1=C(C)NC(SCC(=O)Nc2nccs2)=C(C#N)C1c1ccc(Cl)cc1 (stereo unspecified)	inconclusive: 39.8 µM [inhibitor, partial curve, poor fit]
CCOc1cc(N2CCOCC2)c(OCC)cc1NC(=O)CSc1cccc[n+]1[O-]	inconclusive: 22.4 µM [inhibitor, partial curve]
COC/C=C/C1=CC2=CC(=O)C(C)(OC(=O)c3cnc4ccccc4n3)C(=O)C2=CN1Cc1ccco1 (stereo unspecified)	inconclusive: 11.2 µM [inhibitor, full curve, poor fit]

Structure (SMILES)	Potency
Nc1nc(CN2CCCCC2)cs1	inconclusive: 39.8 µM [inhibitor, single point]
C=CC[C@H]1CC(C)=C[C@H](CC=C)N1C(=O)c1cc(COc2ccccc2SC)on1	inactive
COc1cc2c(cc1OC)/C(=C/c1ccc(Br)cc1)C(=O)OC2	inconclusive: 100 µM [inhibitor, partial curve, poor fit]
COc1ccc(OC)c(NC(=O)CSc2nnc(-c3ccco3)n2-c2ccccc2)c1	inconclusive: 79.4 µM [inhibitor, single point]
Cc1ccc(S(=O)(=O)NNC(=O)c2ccncc2)cc1[N+](=O)[O-]	inconclusive: 28.2 µM [inhibitor, partial curve, poor fit]
Nc1cc(=O)[nH]c(SCC(=O)NC2CCCCCCC2)n1	inconclusive: 63.1 µM [inhibitor, partial curve, poor fit]
Clc1ccccc1-c1nnc2sc(-c3ccc(Br)o3)nn12	inconclusive: 15.8 µM [inhibitor, full curve, poor fit]
NC(=S)Cc1nc2n(n1)Cc1ccccc1-2	inconclusive: 39.8 µM [inhibitor, single point]
CC(=O)N1CCc2c(sc(NC(=O)CN3C(=O)c4ccccc4C3=O)c2C(N)=O)C1	inconclusive: 35.5 µM [inhibitor, single point]
COCCCNC(=O)C(=O)NC1CCCCC1C (stereo unspecified)	inconclusive: 89.1 µM [inhibitor, single point]
CN(C)/C=C/C(=O)c1cnc2sccn2c1=O	inconclusive: 56.2 µM [inhibitor, partial curve, poor fit]
Clc1ccccc1CN1CCN(c2ncccn2)CC1	inconclusive: 44.7 µM [inhibitor, full curve, poor fit]
CC(=O)Nc1ccc(NC(=O)CSc2nc3ccccc3nc2N2CCOCC2)cc1	inconclusive: 89.1 µM [inhibitor, single point]
Cc1nn(-c2ccccc2)c2nc(C3CC3)cc(C(=O)Nc3ccccc3F)c12	inactive
Cc1ccc(CNC(=O)CSc2cc(C)[nH]c(=O)n2)cc1	inconclusive: 63.1 µM [inhibitor, partial curve, poor fit]
CC(C)Cn1c(N)c(C(=O)COC(=O)c2cc(-c3ccco3)nc3ccccc23)c(=O)n(C)c1=O	active: 25.1 µM
Cc1cccc(N(C)S(=O)(=O)c2ccc3c(c2)C(C)(C)C(=O)N3C)c1	inconclusive: 39.8 µM [inhibitor, single point]
CC1=NN(c2ccc(C)cc2C)C(=O)C1C(c1cccc(O)c1)C1C(=O)N(c2ccc(C)cc2C)N=C1C (stereo unspecified)	active: 1.26 µM
CC[C@]12c3[nH]c4cc(CCC(=O)N(C)C)ccc4c3CCN1C(=O)[C@@H](CC(=O)NCCc1ccccn1)C[C@@H]2C(=O)N1CCN(C(=O)c2ccco2)CC1	inconclusive: 79.4 µM [inhibitor, single point]
O=C(NNc1ccc([N+](=O)[O-])cc1[N+](=O)[O-])C1C2CCCCC21 (stereo unspecified)	inconclusive: 100 µM [inhibitor, single point]
O=C(CCN1N=C(c2ccccc2)CCC1=O)NCCc1ccc(Cl)cc1	inconclusive: 100 µM [inhibitor, single point]

Pulled by compound from above (4):
Structure (SMILES)	Potency
C=CC[C@H]1CC(C)=C[C@H](CC=C)N1C(=O)c1cc(COc2ccccc2SC)on1	inactive
O=C(NNc1ccc([N+](=O)[O-])cc1[N+](=O)[O-])C1C2CCCCC21 (stereo unspecified)	inconclusive: 100 µM [inhibitor, single point]
CC(=O)N1CCc2c(sc(NC(=O)CN3C(=O)c4ccccc4C3=O)c2C(N)=O)C1	inconclusive: 35.5 µM [inhibitor, single point]
CC(=O)Nc1ccc(NC(=O)CSc2nc3ccccc3nc2N2CCOCC2)cc1	inconclusive: 89.1 µM [inhibitor, single point]

Further records

Structure (SMILES)	Potency
Cc1ccc(CN(C)C(=O)c2cc(COc3cccc(C(F)(F)F)c3)on2)o1	inconclusive: 79.4 µM [inhibitor, single point]
CCCC1=Nc2cc(C(=O)NC(C)c3ccccc3)ccc2Sc2ccc(C)cc21 (stereo unspecified)	active: 89.1 µM
CN1C(N)=NC(=O)/C1=C\c1ccc(Br)cc1	inactive
CCC1CC2CC(NC(C)=O)C1C2 (stereo unspecified)	inconclusive: 2.51 µM [inhibitor, full curve, poor fit]
O=C(c1cccc(S(=O)(=O)NCc2ccccc2)c1)N1CCCC1	inactive
COc1cccc2cc(C(=O)CS(=O)(=O)c3ccc(Cl)cc3)c(=O)oc12	active: 12.6 µM
COc1ccc(/C=C2\C(=O)ON=C2c2ccccc2)cc1	inconclusive: 39.8 µM [inhibitor, single point]
C=CCOc1ccc(/C=C2/C(=N)N3N=C(CC(=O)N4CCCC4)SC3=NC2=O)cc1OC	inconclusive: 79.4 µM [inhibitor, partial curve]
Cc1ccc(C(=O)NCc2occc2C(=O)O)o1	inconclusive: 22.4 µM [inhibitor, single point]
CCOc1cc(/C=N/NC(=O)C(OC)c2ccccc2)ccc1O (stereo unspecified)	inconclusive: 2.82 µM [inhibitor, partial curve, poor fit]
CC(C)COC(=O)NCCOC(=O)Nc1cccc(Cl)c1	inconclusive: 39.8 µM [inhibitor, single point]
Cc1nc(C)c2c(c1C(F)(F)F)-c1ccccc1C2(F)F	inconclusive: 39.8 µM [inhibitor, partial curve, poor fit]
CCCCN(C(=O)C(C)(C)Oc1ccc(Cl)cc1)c1c(N)n(CCC)c(=O)[nH]c1=O	inconclusive: 79.4 µM [inhibitor, single point]
CCOC(=O)CNS(=O)(=O)c1cc(-c2nnc(Nc3cccc(O)c3)c3ccccc23)ccc1C	active: 89.1 µM
O=C(CSc1n[nH]c(-c2ccccc2Cl)n1)N1CCN(c2ccccc2)CC1	inactive
CCOC(=O)C1=C(C)N=c2s/c(=C\c3ccc(OC(C)=O)c(OCC)c3)c(=O)n2C1/C=C/c1ccccc1 (stereo unspecified)	inconclusive: 39.8 µM [inhibitor, single point]
Cc1ccc(S(=O)(=O)NC(=O)c2cccn2C)cc1	inconclusive: 100 µM [inhibitor, single point]
CCn1cc2nc(SCC(=O)Nc3ccc(C)cc3C)n(Cc3ccc(C)cc3)c(=O)c2n1	inactive
Cc1ccc(OCc2nnc(SCC(=O)c3ccccc3)n2-c2ccccc2)cc1	inconclusive: 17.8 µM [inhibitor, partial curve, poor fit]
